Tested on: KB
Experiment: Cytotoxicity against human KB cells after 48 hrs by MTT assay
Assay type: functional, cell-based
Procedure, shortened: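 Cells grown at 37 °C in 5% CO2; KB in DMEM with 10% FBS, KB-C2 kept with 10% FBS plus 2 µg/mL colchicine. Seeded 5 × 10³ cells/well, preincubated 24 h, then compounds at 2, 10, 50, 100 µg/mL in medium (0.5% DMSO final) for 48 h. MTT 0.5 mg/mL for 4 h, formazan dissolved in DMSO, OD 540 nm; IC50 relative to vehicle controls.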

COc1cc2c(c(OC)c1OC)-c1ccc(OC)c(=O)cc1[C@@H](NC(C)=O)CC2 [COLCHICINE]
IC50: 13 nM

From ChEMBL document CHEMBL1156240, “Papyriferic acid derivatives as reversal agents of multidrug resistance in cancer cells” (Bioorg Med Chem, 2010)
